Data on 1 compound can be found in patent US8334316B2, “Substituted organosulfur compounds and methods of using thereof” (ACEA Biosciences, Inc., priority 2004, dated 2012).

The experiment relates to H460 (human non small cell lung cancer cell line). The experiment is described as follows: RT-CES system cell proliferation/cytotoxicity, H460. As to conditions: H460 cells, FIGS. 1B and 1C, at concentrations studied. It counts as cell-based.

In the case of `CN[C@H]1CCc2cc(OC)c(OC)c(OC)c2-c2ccc(OC)c(=O)cc21` [colcemid, reference compound], the “Effect on cell proliferation (time-dependent cell index)” value was “exhibited inhibitory ability against the proliferation”.
